The whole screen tested about 340,000 compounds, of which about 170 (0.05%) were called active. This list was built around the results that the source calls inconclusive (neither active nor inactive); the mix of calls is not that of the screen. Calls follow the shape of the dose curve; as a rule, active = well fitted inhibition curve with a large enough effect in the signal ratio, with a control signal flat (not every such curve was filed as active); inconclusive = small, poorly fitted or top-dose-only effect, or effect the other way, or a change in a side signal; inactive = flat fitted curve, though single readings scatter; the % refers to the signal ratio. Potencies beside an inconclusive call are fits to weak or partial responses and may not hold up.
Assay: qHTS Assay to Find Inhibitors of Chronic Active B-Cell Receptor Signaling;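 as to activity change, negative = inhibition: plate controls were basal doxycycline-induced cells for no effect and cells given 10 µM MG132 for full effect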
Conditions: ABC-DLBCL IkBa-CBG/CBR reporter, luminescence ratio (green luciferase fused to IkBa over red control in TMD8 lymphoma cells), 4 h; activity change, negative = inhibition: at 46.1 µM (top of the series)
How it was run: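 Doxycycline induced both beetle luciferases in TMD8 lymphoma cells; IKK-driven degradation limits the IkappaBalpha-fused green signal, while red luminescence normalises for cell number and nonspecific effects. Compounds tested up to 46 uM, 4 hrs.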
Potency is read from the fitted curve at half-maximal effect.

Compound	activity change, negative = inhibition	Potency
COc1ccc2nc(NC(=O)CSc3ccccc3)sc2c1	inactive: -0.455%	–
CC1CCC2(CC1)C(Nc1cccc(Cl)c1)=NC(=S)N2CC#N (stereo not drawn)	–	inconclusive: 14.6 µM [falling, partial curve]
COc1ccccc1C(=O)Nc1nnc(S(=O)(=O)N2CCOCC2)s1	inconclusive: 0.89%	–
CC(=O)NCCc1nc2cc(NC(=O)c3ccc([N+](=O)[O-])cc3)ccc2n1C	inactive: -0.309%	–
O=C(CSCc1ccccc1Cl)Nc1ccc(C(=O)O)cc1	–	inconclusive: 2.82 µM [falling, full curve]
O=C(CN1C(=O)S/C(=C/c2cc(Br)cs2)C1=O)N1CCOCC1	inconclusive: -14.8%	–
CN1CCN(c2ccc(S(=O)(=O)N3CCCCC3)cc2NC(=O)COc2ccc(F)cc2)CC1	inactive: 2%	–
CCc1cc2c3c(c1)C1(C(=O)N3C(C)(C)CC2C)C(C#N)=C(N)N2C(=C1C#N)Nc1ccccc12 (stereo not drawn)	inconclusive: -7.37%	–
Cc1cccc(N(C)c2cc(C)nc3nc(C)nn23)c1	inactive: -20%	–
Cc1cccc(NC(=S)NCC23C=CC(O2)C2C(=O)N(c4ccc(Cl)cc4)C(=O)C23)c1 (stereo not drawn)	inactive: -0.914%	–
CCn1c2ccccc2c2cc(/C(C)=N/O)ccc21	inactive: -1.66%	–
O=C(N/N=C\c1ccccn1)c1ccccc1O	–	inconclusive: 4.47 µM [cytotoxic, partial curve]
Cc1ccc(S(=O)(=O)N(C)C)cc1NC(=O)C(C)OC(=O)c1cc[n+]([O-])cc1 (stereo not drawn)	inconclusive: 2.05%	–
COc1ccc(C(=O)NCc2ccncc2)cc1OC	inactive: -0.933%	–
CC(=O)NC(=S)Nc1ccccc1F	–	inconclusive: 10 µM [falling, partial curve]
Cc1cc(C)nc(SCCC(=O)N(C)C)n1	inconclusive: 10.7%	–
Cc1cccc(OCc2nc(-c3ccc(-n4cccc4)cc3)no2)c1	inconclusive: 4.71%	–
CCn1nc(C)c(CNC(=O)C2CCC(=O)N(CCc3ccc(OC)cc3)C2)c1C (stereo not drawn)	inconclusive: -18.7%	–
Cc1cnc(NC(=O)CN2CCN(c3ccccc3F)CC2)s1	–	inconclusive: 6.51 µM [falling, full curve, poor fit]
CCCOc1ccc(C(C(=O)OCCN(CC)CC)c2ccccc2)cc1 (stereo not drawn)	–	inconclusive: 29.1 µM [falling, single point]
N=C1C(c2nc(-c3ccc(Cl)cc3)cs2)=C(O)CN1CCCN1CCOCC1	inconclusive: 8.82%	–
CC(C)=CCC/C(C)=C/CNC(=O)C[C@H]1C[C@H](C(=O)N2CCCCC2)[C@@]2(CCc3ccccc3)c3[nH]c4cc(CCC(=O)N(C)C)ccc4c3CCN2C1=O	inconclusive: 4.79%	–
O=C(Nc1ccc(Br)cc1)C1CC=CCC1C(=O)OCC1CCCO1 (stereo not drawn)	inconclusive: 0.738%	–
O=C(CCN1C(=O)/C(=C/c2cccs2)SC1=S)Nc1ccccc1O	–	inconclusive: 15.8 µM [falling, partial curve]
Fc1cc(F)c2nc(Nc3nc4cc5c(cc4s3)OCO5)sc2c1	inconclusive: 8.19%	–
Cc1ccc(C(=O)Nc2nc(=O)n(C(=O)c3ccccc3Cl)s2)cc1	–	inconclusive: 0.092 µM [rising, full curve, poor fit]

Of the compounds above, these contain a cyano group:
Compound	activity change, negative = inhibition	Potency
CC1CCC2(CC1)C(Nc1cccc(Cl)c1)=NC(=S)N2CC#N (stereo not drawn)	–	inconclusive: 14.6 µM [falling, partial curve]
CCc1cc2c3c(c1)C1(C(=O)N3C(C)(C)CC2C)C(C#N)=C(N)N2C(=C1C#N)Nc1ccccc12 (stereo not drawn)	inconclusive: -7.37%	–

(next part)

Compound	activity change, negative = inhibition	Potency
CC1CCC(C(C)C)C(=O)/C1=C\c1ccc(NC(=O)CCC(=O)O)cc1 (stereo not drawn)	–	inconclusive: 35.5 µM [falling, single point]
Cc1cccc(C(=O)NNC(=O)/C=C/C(=O)O)c1	–	inconclusive: 31.6 µM [rising, partial curve]
Cc1ccc(CSc2nnc(CCCCCNC(=O)OC(C)(C)C)o2)cc1	inactive: 2.41%	–
Cc1ccc(SCCC(=O)N2CCOCC2)cc1	–	inconclusive: 20.6 µM [falling, single point]
COc1ccccc1NC(=O)CSCc1nc2ccccc2[nH]1	inconclusive: -59.2%	–
COc1ccc(NC(=O)C2CCCN2c2ccc(OC)c(OC)c2)cc1OC (stereo not drawn)	inconclusive: -0.884%	–
O=[n+]1cc(-c2ccc(Br)cc2)n([O-])c2c1CCC2	inactive: -0.245%	–
Cc1cc(/C=C2\SC(=O)NC2=O)c(C)n1-c1ccc(N2CCOCC2)cc1	inconclusive: 7.22%	–
O=[N+]([O-])c1ccc(C2CC(c3ccccc3)=Nc3ccccc3S2)cc1 (stereo not drawn)	inconclusive: -0.601%	–
CCCCCc1ccc(OCCCC[n+]2cccc(C)c2)c(CCCCC)c1	inactive: 9.84%	–
CC(=O)c1ccc(NC(=O)CCCN2C(=O)/C(=C/C(C)=C/c3ccccc3)SC2=S)cc1	–	inconclusive: 23.1 µM [falling, single point]
Cc1ncc(CN2CCC(C(=O)Nc3ccc(-n4cccn4)cc3)CC2)s1	inconclusive: 6.53%	–
CCc1nc(SCC(=O)Nc2ccccc2)c2c(=O)n(C)c(=O)n(C)c2n1	inconclusive: 4.97%	–
COc1ccc(C(=O)NCc2c(C)nn(Cc3ccccc3)c2C)cc1S(=O)(=O)N1CCOCC1	inconclusive: 1.97%	–
COc1ccc2c(=O)c(-c3ccccc3)coc2c1	–	inconclusive: 22.4 µM [falling, partial curve]
Cc1ccc(O)c(NC(=O)c2cc(-c3ccc(F)cc3)on2)c1	inconclusive: 377%	–
O=C(c1cccc(C(F)(F)F)c1)N1CCc2c([nH]c3ccccc23)C1C(F)(F)F (stereo not drawn)	inconclusive: -13.6%	–
S=C(NCc1ccccc1)NN1CCOCC1	inconclusive: 9.66%	–
COc1ccc(/C=N/NC(=O)CNC(=O)/C=C/c2ccco2)cc1OC	inconclusive: -1.71%	–
CCC1=C(OC(=O)N(CC)CC)N2C(=O)OC(=NCc3ccccc3)[C@]2(C)[C@H]2C1=CC[C@H]1C(=O)N(CC(=O)OC)C(=O)[C@H]12	inconclusive: 0.0216%	–
CCOC(=O)C1=C(C)N(c2ccc(C)cc2)C(=O)/C1=C\c1ccc(O)c(OC)c1	inconclusive: -15.3%	–
CCN(Cc1ccccc1)S(=O)(=O)c1ccc(S(=O)(=O)N2CCN(CCC#N)CC2)cc1	–	inconclusive: 13 µM [falling, partial curve, poor fit]
C[N+](C)(C)C/C=C1/COCO1	inactive: 4.1%	–
CCc1ccc2oc(-c3ccc(OC)cc3)cc(=Nc3cccc(C(=O)O)c3)c2c1	–	inconclusive: 35.5 µM [falling, single point]
COC(=O)CCC(=O)Nc1sc2c(c1C#N)CCCC2	–	inconclusive: 20 µM [falling, single point]
CCOC(=O)Cc1nc2nc(C)cc(C)n2n1	inconclusive: -1.21%	–

Compound	activity change, negative = inhibition	Potency
Cc1cc(NCCCn2ccnc2)n2nc(-c3ccc(F)cc3)cc2n1	–	inconclusive: 18.4 µM [falling, single point]
CC(C)C(=O)NCCc1nc2ccccc2n1C	inconclusive: 2.26%	–
O=C(CCCSc1nc2ccccc2s1)NC1=NCCS1	–	inconclusive: 0.517 µM [rising, full curve, poor fit]
O=C(NCc1ccco1)C(c1ccccc1)N(C(=O)Cc1cccs1)c1ccccc1F (stereo not drawn)	inconclusive: 7.17%	–
O=C(O)c1cccc(CSc2nnc(-c3ccco3)o2)c1	–	inconclusive: 32.6 µM [falling, single point]
O=c1c(Cl)c(NCc2ccco2)cnn1C12CC3CC(CC(C3)C1)C2	inconclusive: 24.1%	–
Cc1ccc(S(=O)(=O)N2[C@@H](c3ccccc3)C(C(=O)O)=CC[C@H]2c2cccc(Cl)c2)cc1	inactive: 1.24%	–
C/C(=N\Nc1ccc(S(N)(=O)=O)cc1[N+](=O)[O-])c1ccc2c(c1)OCO2	inconclusive: 2.94%	–
COc1ccc([C@]23Cc4ccccc4C(O2)c2c(cc(-c4ccccc4)oc2=O)O3)cc1	inactive: 22.4% [at 9.22 µM]	–
CC(C)(C)NC(=O)c1cc(-c2ccccc2)n[nH]1	–	inconclusive: 22.4 µM [falling, single point]
CCC(C)C(NC(=O)C1CCC(C)CC1)C(=O)NCc1cccnc1 (stereo not drawn)	inactive: 6.3%	–
CCN1CCN(CCCNC(=O)C2c3ccccc3C(=O)N(C)C2c2ccc(OC)cc2)CC1 (stereo not drawn)	inconclusive: 13.6%	–
O=C(C1CCCCC1)N(Cc1cccnc1)c1nc2c(F)cc(F)cc2s1	inactive: 13.7%	–
CCOC(=O)c1ccccc1NC(=O)CSc1nc2ccccc2o1	inconclusive: 12.5%	–
Cc1nc2ccccn2c1C(=O)NN=C1CCCC1	inconclusive: -9.12%	–
COc1ccccc1-c1cc(C(=O)Nc2c(C)n(C)n(-c3ccccc3)c2=O)no1	–	inconclusive: 22.4 µM [falling, partial curve]
Cn1c(/C=N/c2nc3ccccc3[nH]2)nc2ccccc21	–	inconclusive: 32.6 µM [falling, single point]
O=C(CSc1nnc(-c2ccco2)o1)N1CCCCC1	–	inconclusive: 35.5 µM [falling, single point]
Cc1cccc(C(=O)Nc2ccc(C(=O)/C=C/c3ccncc3)cc2)c1	–	inconclusive: 22.4 µM [falling, partial curve, poor fit]
CC[C@]1(c2ccccc2OC)ON(c2ccccc2C(F)(F)F)C1=O	inconclusive: -15.6%	–
O=C(NC1CCCCC1)c1cc2cc(Br)ccc2o1	–	inconclusive: 35.5 µM [rising, single point]
CCOC(=O)CCc1c(C)nc2ncnn2c1C	inconclusive: -0.0391%	–
CCOC(=O)c1nn(-c2ccc(C)cc2)c(=O)cc1OCC(=O)Nc1cccc(C)c1	inactive: 0.613%	–
COc1ccc(OC)c(-c2nn(-c3ccccc3)cc2C(=O)NCC(c2ccco2)N2CCCC2)c1 (stereo not drawn)	inconclusive: -9.22%	–
CC(CCc1ccccc1)NC(=O)C(=O)Nc1ccccc1 (stereo not drawn)	–	inconclusive: 20.6 µM [falling, partial curve]
COc1cc(OC)cc(C(=O)Nc2ccc(S(=O)(=O)Nc3ccccn3)cc2)c1	inconclusive: 5.92%	–

4 entries picked at random from the list so far:
Compound	activity change, negative = inhibition	Potency
CC(CCc1ccccc1)NC(=O)C(=O)Nc1ccccc1 (stereo not drawn)	–	inconclusive: 20.6 µM [falling, partial curve]
CC(C)(C)NC(=O)c1cc(-c2ccccc2)n[nH]1	–	inconclusive: 22.4 µM [falling, single point]
O=c1c(Cl)c(NCc2ccco2)cnn1C12CC3CC(CC(C3)C1)C2	inconclusive: 24.1%	–
CCOC(=O)c1nn(-c2ccc(C)cc2)c(=O)cc1OCC(=O)Nc1cccc(C)c1	inactive: 0.613%	–
